In patent US20030219467A1, “Method for the inhibition of methanogensis” (The Board of Regents of the University of Nebraska, priority 2001, published 2003):

Test system: ruminal organisms

SMILES: CCNc1ccc(C(=O)O)cc1 [4-(ethylamino)benzoate]
- acetate level relative to controls: elevated
- propionate level relative to controls: elevated
